{"source": "patent US20180094019A1", "about": "“CRYSTALLINE FORMS OF MODIFIED TRITERPENOID HYDROCHLORIDE SALTS WITH HIV MATURATION INHIBITOR ACTIVITY” (VIIV HEALTHCARE UK (NO.4) LIMITED, priority 2015, published 2018)", "test": "Relationship of the crystalline forms: relative thermodynamic stability and critical water activity", "type": "physicochemical", "conditions": "between T1F-2 and H-4 forms", "source_text": "Herein we describe three crystalline forms of the monohydrochloride salt, Compound I, that have been prepared and identified: the monohydrochloride monohydrate H-4 form and two monohydrochloride forms designated as […]-1 and […]-2. […] The critical water activity between the […]-2 and H-4 forms is in the range 0.05-0.24.", "note": "Some entries share one result that the patent states for a list of compounds.", "data": [{"compound": "C=C(C)[C@@H]1CC[C@]2(NCCN3CCS(=O)(=O)CC3)CC[C@]3(C)[C@H](CC[C@@H]4[C@@]5(C)CC=C(c6ccc(C(=O)O)cc6)C(C)(C)[C@@H]5CC[C@]43C)[C@@H]12.Cl", "note": "[Form T1F-2, 4-((1R,3aS,5aR,5bR, 7aR, 11aS,11bR,13aR,13bR)-3a-((2-(1,1-dioxidothiomorpholino)ethyl)amino)-5a,5b,8,8,11a-pentamethyl-1-(prop-1-en-2-yl)-2,3,3a,4,5,5a,5b,6,7,7a,8, 11,11a,11b, 12,13,13a,13b-octadecahydro-1H-cyclopenta[a]chrysen-9-yl)benzoic acid hydrochloride]", "values": [{"measurement": "critical water activity between the T1F-2 and H-4 forms", "value": "0.05-0.24"}]}]}
